Results are percentages, as filed.
The record does not define 0% and 100%; most values in the screen are far below 50% and negative numbers occur (in some assays of this library far below -100).
The compounds are a random part of those screened.

The chains behind the UniProt entries cited, without tags or fusion partners.
UniProt E9BF75, entry or part of it: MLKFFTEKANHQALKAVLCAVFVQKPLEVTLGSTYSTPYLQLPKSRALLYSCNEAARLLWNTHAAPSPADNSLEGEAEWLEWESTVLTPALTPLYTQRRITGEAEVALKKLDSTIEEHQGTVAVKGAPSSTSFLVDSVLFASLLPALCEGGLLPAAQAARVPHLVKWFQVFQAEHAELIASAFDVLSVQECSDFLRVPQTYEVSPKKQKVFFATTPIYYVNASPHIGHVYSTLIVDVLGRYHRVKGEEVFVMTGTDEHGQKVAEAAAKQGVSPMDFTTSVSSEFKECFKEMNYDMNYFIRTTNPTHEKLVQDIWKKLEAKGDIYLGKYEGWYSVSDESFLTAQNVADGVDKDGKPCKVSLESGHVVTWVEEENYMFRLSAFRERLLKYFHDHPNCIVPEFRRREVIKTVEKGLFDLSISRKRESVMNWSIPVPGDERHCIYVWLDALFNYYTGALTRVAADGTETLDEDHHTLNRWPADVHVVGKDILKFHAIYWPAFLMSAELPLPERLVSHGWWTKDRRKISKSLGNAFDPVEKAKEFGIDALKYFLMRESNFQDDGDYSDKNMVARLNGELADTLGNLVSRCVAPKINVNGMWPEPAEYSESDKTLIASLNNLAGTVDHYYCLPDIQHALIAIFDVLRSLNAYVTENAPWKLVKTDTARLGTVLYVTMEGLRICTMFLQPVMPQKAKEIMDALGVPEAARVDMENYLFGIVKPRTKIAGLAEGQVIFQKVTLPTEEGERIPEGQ

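Methionyl-tRNA synthetase (putative), Leishmania donovani (UniProt E9BF75). Primary screen of methionyl-tRNA synthetase; the read-out is not stated. The test concentration is not given. The values are filed as inhibition. Of about 68,000 compounds tested this way, about 24 (0.035%) reached 50% or more in at least one test.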

compound | inhibition
COc1cc(N2CCC(c3nccn3Cc3ccccn3)CC2)ncn1 | 15.86
Cn1cc(-c2nc3c(cc2C(=O)O)CCN(C(=O)C2CC2)CC3)cn1 | 11.96
CS(=O)(=O)CCSc1n[nH]c(-c2ccc3c(c2)CCC3)n1 | 11.49
CCCC(=O)N(CC)C(c1cccnc1)c1ccc2c(c1)CCO2 (configuration not stated) | 4.965
CC(C)N1CC(C(=O)NCCc2csc(-c3ccncc3)n2)CC1=O (configuration not stated) | -11.81
COCCOc1ccc(NC(=O)N2CCOC(C(N)=O)C2)cc1F (configuration not stated) | 13.5
Cc1ccsc1C(=O)N1CC[C@H]2CO[C@H](CN(C)C)[C@H]2C1 | 13.14
Cc1nc(S(=O)(=O)N2CCSC3(CCCCC3)C2)cn1C | 15.13
NCCn1cc(C(=O)NCc2ccccc2Cn2cccn2)nn1 | 12.75
CN(Cc1nccn1C)S(=O)(=O)N1CCCC1c1ccco1 (configuration not stated) | 17.53
CC(NC(=O)NCCc1ccc(Cl)s1)c1ccccn1 (configuration not stated) | 19.67
CO[C@@H]1CCC[C@@H](N(C)C(=O)c2cn3cc(C)ccc3n2)[C@H]1O | 11.21
O=C(c1cc(C2CC2)nc2onc(-c3ccccc3)c12)N1CCOCC1 | 14.63
CC(C)c1cc(NCC(O)CO)n2nccc2n1 (configuration not stated) | 9.783
O=C(c1ccc(F)cc1)N1C[C@H]2CCC[C@@]2(COCc2ccncc2)C1 | 16.31
COc1cccc(CC(C)NC(=O)NC(C)C)c1 (configuration not stated) | 11.56
O=C(NC[C@H]1CCCC[C@H]1O)c1cccc2[nH]c(-c3ccco3)nc12 | 9.167
CCOc1cc(C)nc(N2CCN(C(=O)c3ccncc3)CC2)n1 | 5.028
CS(=O)(=O)CCN(CCCO)C1CCc2ccccc21 (configuration not stated) | 11.38
CN1CCCC1c1cccc(Cc2ccccc2F)n1 (configuration not stated) | 23.63
CCc1ccc(NS(=O)(=O)c2cc3c(c(C(=O)O)c2)OCCO3)cc1 | 20.34
O=S(=O)(CCc1ccccc1Cl)CC(O)CO (configuration not stated) | 9.84
COc1ccc2nc3n(c2c1)[C@@H](CNC(=O)c1cncnc1)COC3 | 7.797
Cc1nc(Nc2cnccn2)cc(C2CN(C(C)C)C2)n1 | 9.709
O=C(CNc1cc(F)ccc1OC(F)F)NCC(F)(F)F | 6.355
COc1ccc(N(C(=O)c2ccccn2)C(C)C)cc1F | 9.409
Cc1ccc(CN2CCCC(c3nnc(CN4CCCCC4)n3C)C2)s1 (configuration not stated) | 12.04
CS(=O)(=O)NC1CCc2c(ccc(=O)n2CC2CC2)C1 (configuration not stated) | 16.38
COc1cc(-c2nccn2CCn2cccn2)cc2c1OCO2 | -1.067
CC(C)N(C)C(=O)Cn1ncc(N(C)CCc2ccccc2)cc1=O | 12.8
Cc1nn(C)c(N(C)C)c1CNC1CCCCNC1=O (configuration not stated) | 13.18
CCC1CCCCN1C(=O)c1ccc2[nH]nnc2c1 (configuration not stated) | 12.38
COc1ccc(OC2CCN(C(=O)CCc3n[nH]c(C)n3)CC2)cc1 | 5.625
CC(=O)NCC(=O)N1Cc2c(-c3cccc(C)c3)nc(N)nc2C1C (configuration not stated) | 10.72
COc1cccc(CN(C)CC(=O)NC2(C)CCS(=O)(=O)C2)c1 (configuration not stated) | 11.85
CN(C)CCN1CCC2(CCN(C(=O)c3cccc(F)c3)CC2)C1=O | 2.885
CCc1nc(CN2CCc3c(ncn3C3CC3)C2)cs1 | 30.68
O=C(c1ccc(-n2cccn2)nc1)N1CCC(Nc2cccnn2)CC1 | 19.44
Cn1cnc(S(=O)(=O)N2CCN(Cc3ccco3)CC2)c1Cl | 11.5
CN(C)S(=O)(=O)N1CCCCC1CCc1ccc(O)cc1 (configuration not stated) | 10.22
CN(C)C(=O)CN1CCCC1c1nc(N)ncc1-c1ccc(F)cc1 (configuration not stated) | 6.472
O=C(NCc1cccnc1)[C@H]1CC[C@@H]2[C@@H](CCN2c2ncccn2)O1 | 4.945
Cc1cc(CN2CCN(Cc3ccc(C#N)cc3OC(F)F)CC2)no1 | 3.684
Cc1cc(C)n(CC2CCCN2C(=O)c2cccnc2N(C)C)n1 (configuration not stated) | 20.51
COCCN1C[C@H]2CC[C@@H]1CN(C(=O)c1ccc(Cl)cc1)C2 | 19.05
CCN(Cc1ccncc1)C1CCCN(Cc2ccc(F)cc2OC)C1 (configuration not stated) | 12.32
CC(C)c1cc(C(=O)N2CCCC(n3cncn3)C2)n[nH]1 (configuration not stated) | 14.21
C[C@@H]1CN(C(=O)c2cnc(C3CC3)nc2)CC[C@@]1(O)C1CCOCC1 | 11.23
c1cnc2[nH]nc(C3CCN(Cc4ccsc4)CC3)c2c1 | 9.375
CC(NC(=O)NCc1cccc(N2CCCC2=O)c1)c1ccccc1 (configuration not stated) | 12.5
O=c1[nH]nc(CNc2ncc(Cl)cn2)[nH]1 | 13.75
Cc1cccc(NC(=O)c2cnc(C3CCCNC3)cn2)n1 (configuration not stated) | 18.94
COCc1noc(CNc2nc(C3CCCC3)nc3c2CCNCC3)n1 | 8.247
CCN(C(=O)c1ccc2nnc(C3CCN(C(C)=O)C3)n2c1)C(C)C (configuration not stated) | -1.681
CCOc1ccc2[nH]c(=O)c(CN3CCC(O)CC3)cc2c1 | 17.04
CCn1cncc1CNC(=O)c1ccc(C2CCCN2C(=O)COC)s1 (configuration not stated) | 9.137
COc1nc2ccn(CCc3cnccn3)c(=O)c2cc1C#N | -3.351
COC(=O)c1cccc(S(=O)(=O)NC(=O)COC2CCCCC2)c1 | 17.38
CN(C)CC1CN(c2ncnc3[nH]ccc23)CCO1 (configuration not stated) | 17.36
O=S(=O)(C1CC1)N1Cc2[nH]nc(COCC3CC3)c2C1 | 15.58
CCn1cc(NC(=O)NCc2ccc3c(c2)OCO3)cn1 | 19.67
O=C(O)[C@@H]1CN(C2CCCC2)C[C@H]1C1CC1 | 4.795
Cc1ncsc1CCN(C)C(=O)c1ncccc1O | 12.85
CCOC(=O)CC(c1ccc(OC)c(OC)c1)c1c(O)n[nH]c1C (configuration not stated) | 15.01
O=C1Nc2ccccc2C12CCN(Cc1cccs1)CC2 | 22.41
CN(C)CCn1c(=O)oc2ccc(NC(=O)N3CCCCCC3)cc21 | 22.28
COc1c(NC(=O)C(C)CCOc2ccccc2)c(C)nn1C (configuration not stated) | 13.77
CCCC(=O)N1CCC(c2cc3cccnc3c(O)n2)CC1 | 18.35
COc1ccc(/C=C/CN2CCCC3(C2)CN(C)C(=O)O3)cc1 (configuration not stated) | 4.267
CCn1nc(C)c(S(=O)(=O)Nc2cccc(C(=O)O)c2C)c1C | 3.817
COCCN1CCC2(C1)CN(c1ncccn1)C2 | -7.769
O=C(Nc1nc(-c2ccccc2)ns1)N1CCC(CO)CC1 | 18.1
CSCCC1c2nc[nH]c2CCN1Cc1ccccc1C#N (configuration not stated) | 19.94
Cc1ccc2nc(CN3CCCCC3C(=O)N3CCOCC3)cn2c1 (configuration not stated) | 15.48
N#Cc1cc(NS(=O)(=O)c2ccc(C(=O)O)cc2F)ccc1F | 9.15
Cc1nc(Nc2ccccn2)cc(N2CCN(S(C)(=O)=O)CC2)n1 | 4.317

Some entries from above, unchanged:

{"compound": "CS(=O)(=O)CCN(CCCO)C1CCc2ccccc21", "stereo": "configuration not stated", "inhibition": 11.38}
{"compound": "O=C(CNc1cc(F)ccc1OC(F)F)NCC(F)(F)F", "inhibition": 6.355}
{"compound": "CN(C)CC1CN(c2ncnc3[nH]ccc23)CCO1", "stereo": "configuration not stated", "inhibition": 17.36}
{"compound": "COc1nc2ccn(CCc3cnccn3)c(=O)c2cc1C#N", "inhibition": -3.351}
{"compound": "CN(C)C(=O)CN1CCCC1c1nc(N)ncc1-c1ccc(F)cc1", "stereo": "configuration not stated", "inhibition": 6.472}
{"compound": "Cc1nc(S(=O)(=O)N2CCSC3(CCCCC3)C2)cn1C", "inhibition": 15.13}
{"compound": "COc1ccc(OC2CCN(C(=O)CCc3n[nH]c(C)n3)CC2)cc1", "inhibition": 5.625}
{"compound": "CN(C)S(=O)(=O)N1CCCCC1CCc1ccc(O)cc1", "stereo": "configuration not stated", "inhibition": 10.22}

Measurements from “University of Dundee, Small-Polar-MMV Screening Library” (2021), ChEMBL document CHEMBL3988442.